Measured data: PubChem BioAssay AID1053208 (Peter MacCallum Cancer Centre, 2014)
Aim: 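Genes whose silencing cuts survival of bone tumour cells only with doxorubicin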 (primary screen). Cell system: mouse osteosarcoma cells, early-passage culture from an engineered mouse model of fibroblastic bone tumour. Knock-down reagent: siRNA pool against mouse genes, 40 nM. Duration: about 120 h (48 h before drug, then 72 h with drug). Challenge: doxorubicin 100 nM for 72 h, roughly 30-40% inhibitory dose. Measurement: 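Viability read as ATP luminescence after 72 h of 100 nM doxorubicin or none, duplicate wells averaged, scaled to non-targeting siRNA, then expressed as robust z-scores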. Reading the numbers: viability z-score with doxorubicin: higher = more viable cells under doxorubicin; viability z-score without drug: higher = more viable cells with knock-down alone. Active means: 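a pool counts as active when its viability z-score with doxorubicin is -2 or below and its z-score without drug lies between -2 and 2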.
This is an unselected part of about 17,000 reagents tested. In the full data, 788 (4.7%) are marked active. 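Calls rest on z-score classes alone; an extra cut-off of viability at most 70% of control was not applied to them.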 A number with no mark means an inactive call. Not all columns of the deposit are shown. No sequences are given here.

For Letmd1, the entry reads combined z-score class low cell count without drug only; viability z-score with doxorubicin -0.67; viability z-score without drug -2.02.
After knock-down of Ulk2, the screen gave combined z-score class no change with or without drug; viability z-score with doxorubicin -0.22; viability z-score without drug 0.84.
After knock-down of Gfi1, the record shows combined z-score class low cell count with doxorubicin only (active); viability z-score with doxorubicin -2.02; viability z-score without drug -0.84.
After knock-down of Xpr1 the results were combined z-score class no change with or without drug; viability z-score with doxorubicin 1.69; viability z-score without drug 1.52.
With knock-down of Or52n2c, the screen gave combined z-score class no change with or without drug; viability z-score with doxorubicin 1.46; viability z-score without drug 0.84.
E230025N22Rik showed combined z-score class no change with or without drug; viability z-score with doxorubicin -1.12; viability z-score without drug 0.51.
Oxr1 showed combined z-score class low cell count with doxorubicin only (active); viability z-score with doxorubicin -2.47; viability z-score without drug -0.84.
Depletion of Tspan10 resulted in: combined z-score class no change with or without drug; viability z-score with doxorubicin 1.12; viability z-score without drug 0.51.
For Smim12, the entry reads combined z-score class no change with or without drug; viability z-score with doxorubicin 0.9; viability z-score without drug 0.51.
Silencing of Gpr155 gave: combined z-score class no change with or without drug; viability z-score with doxorubicin 0.22; viability z-score without drug -0.84.
Hrnr showed combined z-score class no change with or without drug; viability z-score with doxorubicin 0.45; viability z-score without drug 1.85.
With knock-down of Il1f10, the record shows combined z-score class no change with or without drug; viability z-score with doxorubicin -0.67; viability z-score without drug 0.84.
With knock-down of Ccdc106, the record shows combined z-score class no change with or without drug; viability z-score with doxorubicin 0.9; viability z-score without drug 1.18.
Dnajc3 gave combined z-score class no change with or without drug; viability z-score with doxorubicin 0.9; viability z-score without drug 1.35.
Depletion of Adcyap1 came out at: combined z-score class no change with or without drug; viability z-score with doxorubicin 0; viability z-score without drug 0.17.
Against Tex12, the values are combined z-score class no change with or without drug; viability z-score with doxorubicin -1.69; viability z-score without drug 0.34.
Against Akirin1 the deposit lists combined z-score class no change with or without drug; viability z-score with doxorubicin 0.11; viability z-score without drug -0.17.
After knock-down of Tmem114, the record shows combined z-score class no change with or without drug; viability z-score with doxorubicin 0; viability z-score without drug 0.51.
Knock-down of Sfrp1 came out at: combined z-score class no change with or without drug; viability z-score with doxorubicin -0.22; viability z-score without drug 0.
After knock-down of Sftpd, the record shows combined z-score class no change with or without drug; viability z-score with doxorubicin -0.22; viability z-score without drug -0.34.
With knock-down of Bmp6, the record shows combined z-score class no change with or without drug; viability z-score with doxorubicin -0.22; viability z-score without drug -1.18.
Depletion of Mbnl1 came out at: combined z-score class no change with or without drug; viability z-score with doxorubicin 0.34; viability z-score without drug -0.17.
Silencing of Bdnf resulted in: combined z-score class no change with or without drug; viability z-score with doxorubicin 0.9; viability z-score without drug 1.01.
For Cldn19, the entry reads combined z-score class low cell count with and without drug; viability z-score with doxorubicin -2.59; viability z-score without drug -2.53.
For Ctsa, the values are combined z-score class no change with or without drug; viability z-score with doxorubicin -0.34; viability z-score without drug 0.51.
Tub gave combined z-score class no change with or without drug; viability z-score with doxorubicin 1.35; viability z-score without drug 1.52.
Silencing of Ric8a resulted in: combined z-score class no change with or without drug; viability z-score with doxorubicin -0.22; viability z-score without drug 0.
Lingo4 scored combined z-score class no change with or without drug; viability z-score with doxorubicin 0; viability z-score without drug -0.51.
Against Med28 the deposit lists combined z-score class no change with or without drug; viability z-score with doxorubicin 0.22; viability z-score without drug -1.69.
Knock-down of Arl6ip5 resulted in: combined z-score class no change with or without drug; viability z-score with doxorubicin 0.45; viability z-score without drug 0.
With knock-down of Ccz1, the record shows combined z-score class no change with or without drug; viability z-score with doxorubicin -1.69; viability z-score without drug 0.17.
Against Magea8, the entry reads combined z-score class no change with or without drug; viability z-score with doxorubicin -1.12; viability z-score without drug -1.01.
For Emc6 the deposit lists combined z-score class no change with or without drug; viability z-score with doxorubicin -0.45; viability z-score without drug -0.34.
Against Abcf1, the values are combined z-score class no change with or without drug; viability z-score with doxorubicin 0.45; viability z-score without drug -0.17.
Silencing of Borcs7 came out at: combined z-score class no change with or without drug; viability z-score with doxorubicin 1.35; viability z-score without drug 1.52.
Usp22 gave combined z-score class no change with or without drug; viability z-score with doxorubicin -0.67; viability z-score without drug 0.51.

Part of the list above, set out differently.
{"gene knocked down": "Bmp6", "combined z-score class": "no change with or without drug", "viability z-score with doxorubicin": -0.22, "viability z-score without drug": -1.18}
{"gene knocked down": "Mbnl1", "combined z-score class": "no change with or without drug", "viability z-score with doxorubicin": 0.34, "viability z-score without drug": -0.17}
{"gene knocked down": "Bdnf", "combined z-score class": "no change with or without drug", "viability z-score with doxorubicin": 0.9, "viability z-score without drug": 1.01}
{"gene knocked down": "Cldn19", "combined z-score class": "low cell count with and without drug", "viability z-score with doxorubicin": -2.59, "viability z-score without drug": -2.53}
